Data from patent US6746850B2 (priority 2000, dated 2004).
Several values for one entry are separate records, joined by “and”; a condition that tells them apart may be missing. Identical values can stand only once. Like-named read-outs stand apart in the source and are kept apart here. At least one compound was matched to its structure with a doubt left.

What was measured:
AChE [1] = target: AChE (Rattus norvegicus, UniProt P37136); assay type: biochemical, Sprague Dawley rat
BChE [2] = target: BChE (Homo sapiens, UniProt P06276); assay type: biochemical
AChE [3] = target: AChE (Homo sapiens, UniProt P22303); assay type: biochemical
BChE [4] = target: T1, BChE (Cavia porcellus, UniProt H0V4F8); assay type: biochemical, Hartley guinea pig
BChE [5] = target: T1, BChE; assay type: biochemical, Hartley guinea pig; remark: listed apart in the source
AChE [6] = target: T2, AChE (Cavia porcellus, UniProt D3YE96); assay type: biochemical, Hartley guinea pig
BChE [7] = assay type: biochemical, Rhesus monkey
AChE [8] = target: AChE (Macaca mulatta, UniProt A0A5F7ZPE9); assay type: biochemical, Rhesus monkey
BChE [9] = target: BChE (Rattus norvegicus, UniProt Q9JKC1); assay type: biochemical, Sprague Dawley rat
AChE [10] = target: T2, AChE; assay type: biochemical, Hartley guinea pig; remark: listed apart in the source
AChE [11] = target: T2, AChE; assay type: biochemical, Hartley guinea pig; remark: listed apart in the source

Compound	AChE Coefficient (sensitivity coefficient) Value (AChE [1])	BChE Coefficient (sensitivity coefficient) Value (BChE [2])	AChE Coefficient (sensitivity coefficient) Value (AChE [3])	BChE Coefficient (sensitivity coefficient) Value (BChE [4])	BChE Coefficient (sensitivity coefficient) Value (BChE [5])	AChE Coefficient (sensitivity coefficient) Value (AChE [6])	BChE Coefficient (sensitivity coefficient) Value (BChE [7])	AChE Coefficient (sensitivity coefficient) Value (AChE [8])	BChE Coefficient (sensitivity coefficient) Value (BChE [9])	AChE Coefficient (sensitivity coefficient) Value (AChE [10])	AChE Average (AChE [11])
CC(=O)SCC[N+](C)(C)C [ATC, acetylthiocholine]	282 mAbs/min/[blood]	841 mAbs/min/[blood]	2162 mAbs/min/[blood]	297 mAbs/min/[blood] and 284 mAbs/min/[blood] and 270 mAbs/min/[blood]	321 mAbs/min/[blood]	418 mAbs/min/[blood] and 431 mAbs/min/[blood] and 444 mAbs/min/[blood]	314 mAbs/min/[blood]	1599 mAbs/min/[blood]	103 mAbs/min/[blood]	294 mAbs/min/[blood]	–
CC(C)NP(=O)(NC(C)C)OP(=O)(NC(C)C)NC(C)C [Iso-OMPA, tetraisopropylphosphoramide]	–	–	–	–	–	–	–	–	–	–	0.605 U/mL and 0.630 U/mL and 0.616 U/mL and 0.635 U/mL and 0.657 U/mL and 0.585 U/mL and 0.597 U/mL
